The values below come from patent US20230035127A1, “CULTURE AND DIFFERENTIATION OF PLURIPOTENT STEM CELLS” (University of Maryland, College Park, priority 2021, published 2023).

The data set has as its system human eiPSCs. Briefly: RNA sequencing of eiPSC spheroids and cardiac spheroids. It counts as cell-based. The source says: To investigate the mechanisms for the different outcomes when using different RI concentrations for culturing the eiPSC spheroids in 3D for cardiac differentiation, samples at various stages of the 3D culture and differentiation shown in FIG. 1 were collected and analyzed by RNA-sequencing (RNA-seq). The sample groups and their abbreviations are summarized in Table 1 including undifferentiated eiPSCs on day −2.5 (U), cardiac commitment on day 2.5 (C), cardiac maturation on day 13.5 (M), together with 2D monolayer colonies on day −4 (2D) as a common 2D undifferentiated control for both the 1 (one: […]) and 10 (ten: T) μM RI 3D culture. The raw data of RAN-seq were of high quality with an error rate of no more than 0.03%. The raw data passed quality control were then aligned for mapping to the reference (human genome) with a total mapping rate of 95.8±0.5%. Afterward, the gene expression level was calculated by the number of mapped reads, also known as fragments per kilobase of transcript per million mapped reads (FPKM). Moreover, the global transcriptome of different samples with cluster analysis and hierarchical clustering analysis was carried out with log10 (FPKM+1) on differentially expressed genes within all comparison groups and plotted as a heat-map (FIG. 6), showing the global gene expression pattern of samples together with the samples' hierarchies that match with the different stages of the different samples given in FIG. 1.
For RNA sequencing (RNA-Seq), total RNA was extracted from the eiPSC clumps from 2D culture on day −4 (termed as 2D) and spheroids collected on day −2.5 after 1.5 days in the 3D culture (termed as UO and UT for 1 μM and 10 μM RI conditions, respectively), day 2.5 (termed as CO and CT), and day 13.5 (termed as MO and MT). The DNase I from bovine pancreas was used to remove DNA in samples. The RNA concentration in the samples was measured with Nanodrop and the integrity and quality of RNAs in the samples were confirmed with the Nano RNA Bioanalyzer. Samples with RNA integrity number greater than 9 were used for the preparation of the next-generation sequencing library using the NEB Ultra Directional RNA library preparation kit. Pair-end sequencing was performed by the Illumina HiSeq2500 platform. RNA-seq sequencing data quality was verified by Novogene. Raw reads were mapped to the human reference genome version (hg38) and the gene expression level based on reads per kilobase of exon per million reads mapped for annotated genes was measured and normalized using the Cufflink program. Samples were compared in different combinations and genes with an expression change of more than 1.5 in |log2 fold change| were defined as differentially expressed genes (DEG). Different classes of genes were subjected to functional and pathway analysis with the Gene Ontology (GO) database.

`C[C@@H](N)[C@H]1CC[C@H](C(=O)Nc2ccncc2)CC1.Cl.Cl` (relative stereo) [RI, (+)-(R)-trans-4-(1-aminoethyl)-N-(4-pyridyl) cyclo-hexanecarboxamide dihydrochloride]: the “differentially expressed unique genes” value turned out to be 359 (CO: 1 μM RI, cardiac commitment, day 2.5); 103 (CT: 10 μM RI, cardiac commitment, day 2.5); 549 (MO: 1 μM RI, cardiac maturation, day 13.5); 521 (MT: 10 μM RI, cardiac maturation, day 13.5); 123 (UO: 1 μM RI, undifferentiated, day −2.5); 173 (UT: 10 μM RI, undifferentiated, day −2.5).
